In patent US12558329B2, “Methods and compositions for treating 4-hydroxyphenylpyruvate dioxygenase-like (HPDL)-related diseases or disorders” (New York University, priority 2021, dated 2026):

System: MIAPACA2 cells
Assay: Pulse-chase study with tyrosine-derived intermediates after two weeks of 13C9-Tyr labelling
Assay type: cell-based, human
Settings: 24 hours
Procedure: To test if the 4-HMA pathway was directly involved in CoQ10 biosynthesis, cells were labelled with ^13C[…] for two weeks, followed by a chase with non-labelled (12C)-Tyr, (12C)-4-HPPA, (12C)-4-HPLA, (12C)-4-HMA and (12C)-4-HB for 24 hours (FIG. 11I). […] This was consistent with 4-HPPA being downstream of Tyr and upstream of intermediates involved in 4-HB synthesis. […] This placed 4-HMA downstream of 4-HPPA. […] Using the same experimental scheme, the incorporation of Tyr-derived metabolites into CoQ10 was measured. After cells were grown for two weeks in ^13C[…] media, approximately 60% of the intracellular CoQ10 pool was labelled. Based on previous 24 hour labelling experiments, CoQ10 was expected to be fully labelled with ^13C[…] after two weeks at 21% O2. […] After switching two-week ^13C[…] labelled cells from ^13C9- to ^[…][…] for 24 hours, a 20% increase in non-labelled CoQ10 was observed. Addition of 4-[…] and 4-HB in the presence of ^13C[…] increased the fraction and levels of unlabelled CoQ10 by 30% (FIG. 11K). […] For metabolomics, briefly, cells were washed in 4° C. 0.9% saline and metabolites were extracted with 46% methanol:23% H2O:[…] chloroform that contained a labelled amino acid standard mix (MSK-A2-1.2, Cambridge Isotope Laboratories, Inc.). […] Peak heights were analyzed using Xcalibur (ThermoFisher Scientific). […]

For `O=C(O)C(=O)Cc1ccc(O)cc1` [Metabolite 4-HPPA, 4-hydroxyphenylpyruvate], the “effect on 4-HB levels” value (exogenous metabolite) was “minimal effect” and the “effect on intracellular levels of the other Tyr-derived metabolites” value (exogenous unlabelled metabolite) was “increased the downstream metabolites 4-HPLA, 4-HMA, but not Tyr”.
